# From the supplement of paper PMC8728848
# Some of the results follow.
# B1: ERGIC1-EDTA (Homo sapiens), Q969X5 (protein)
# chain: MKFLVNVALVFMVVYISYIYAAAHMHHHHHHDYDIPTTENLYFQGSEVVNELYVDDPDKDSGGKIDVSLNISLPNLHCELVGLDIQDEMGRHEVGHIDNSMKIPLNNGAGCRFEGQFSINKVPGNFHVSTHSATAQPQNPDMTHVIHKLSFGDTLQVQNIHGAFNALGGADRLTSNPLASHDYILKIVPTVYEDKSGKQRYSYQYTVANKEYVAYSHTGRIIPAIWFRYDLSPITVKYTE
# Legend:
# Assay in all cases: glycan array binding signal (z-score within array); higher = stronger binding
# Conditions in all cases: glycan notation: IUPAC condensed, linker removed
# Neu5Ac(a2-8)Neu5Ac = biological target: Neu5Ac(a2-8)Neu5Ac
# Summary of the method: (§1)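 Arrays were curated from the Consortium for Functional Glycomics database, 3228 in total, and kept only where the protein sequence was available. Binding is expressed as a within-array Z-score. This score was averaged across arrays of the same protein sequence at different concentrations or buffers and across linkers, and negative values can be read as non-binding.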
# [1] = biological target: Neu5Ac(a2-8)Neu5Ac(a2-3)Gal(b1-3)GalNAc(b1-4)[Neu5Ac(a2-3)]Gal(b1-4)Glc
# Summary of the method: as §1
# [2] = biological target: Neu5Ac(a2-8)Neu5Ac(a2-3)Gal(b1-3)GalNAc(b1-4)[Neu5Ac(a2-8)Neu5Ac(a2-3)]Gal(b1-4)Glc
# Summary of the method: as §1
# [3] = biological target: Neu5Ac(a2-8)Neu5Ac(a2-3)Gal(b1-4)Glc
# Summary of the method: as §1
# [4] = biological target: Neu5Ac(a2-8)Neu5Ac(a2-3)Gal(b1-4)GlcNAc
# Summary of the method: as §1
# [5] = biological target: Neu5Ac(a2-8)Neu5Ac(a2-3)[Gal(b1-3)GalNAc(b1-4)]Gal(b1-4)Glc
# Summary of the method: as §1
# [6] = biological target: Neu5Ac(a2-8)Neu5Ac(a2-3)[GalNAc(b1-4)]Gal(b1-4)Glc
# Summary of the method: as §1
# [7] = biological target: Neu5Ac(a2-8)Neu5Ac(a2-8)Neu5Ac
# Summary of the method: as §1
# [8] = biological target: Neu5Ac(a2-8)Neu5Ac(a2-8)Neu5Ac(a2-3)Gal(b1-4)Glc
# Summary of the method: as §1
# [9] = biological target: Neu5Ac(a2-8)Neu5Ac(a2-8)Neu5Ac(a2-3)[Gal(b1-3)GalNAc(b1-4)]Gal(b1-4)Glc
# Summary of the method: as §1
# [10] = biological target: Neu5Ac(a2-8)Neu5Ac(a2-8)Neu5Ac(a2-3)[GalNAc(b1-4)]Gal(b1-4)Glc
# Summary of the method: as §1
# [11] = biological target: Neu5Ac(a2-8)Neu5Ac(a2-8)Neu5Ac(a2-8)Neu5Ac(a2-3)[GalNAc(b1-4)]Gal(b1-4)Glc
# Summary of the method: as §1
# [12] = biological target: Neu5Ac(a2-8)Neu5Gc(a2-3)Gal(b1-4)GlcNAc
# Summary of the method: as §1
# [13] = biological target: Neu5Ac(b2-6)Gal(b1-4)GlcNAc
# Summary of the method: as §1
# Neu5Ac(b2-6)GalNAc = biological target: Neu5Ac(b2-6)GalNAc
# Summary of the method: as §1
# [14] = biological target: Neu5Ac9Ac(a2-3)Gal(b1-3)GlcNAc
# Summary of the method: as §1
# [15] = biological target: Neu5Ac9Ac(a2-3)Gal(b1-4)GlcNAc
# Summary of the method: as §1
# [16] = biological target: Neu5Ac9Ac(a2-6)Gal(b1-4)GlcNAc
# Summary of the method: as §1
# [17] = biological target: Neu5Gc(a2-3)Gal(b1-3)GlcNAc
# Summary of the method: as §1
# [18] = biological target: Neu5Gc(a2-3)Gal(b1-3)[Fuc(a1-4)]GlcNAc
# Summary of the method: as §1
# Neu5Gc(a2-3)Gal(b1-4)Glc = biological target: Neu5Gc(a2-3)Gal(b1-4)Glc
# Summary of the method: as §1
# [19] = biological target: Neu5Gc(a2-3)Gal(b1-4)GlcNAc
# Summary of the method: as §1
# [20] = biological target: Neu5Gc(a2-3)Gal(b1-4)GlcNAc(b1-3)Gal(b1-4)GlcNAc(b1-2)Man(a1-3)[Neu5Gc(a2-3)Gal(b1-4)GlcNAc(b1-3)Gal(b1-4)GlcNAc(b1-2)Man(a1-6)]Man(b1-4)GlcNAc(b1-4)GlcNAc
# Summary of the method: as §1
# [21] = biological target: Neu5Gc(a2-3)Gal(b1-4)[Fuc(a1-3)]GlcNAc
# Summary of the method: as §1
# [22] = biological target: Neu5Gc(a2-6)Gal(b1-4)GlcNAc
# Summary of the method: as §1
# Neu5Gc(a2-6)GalNAc = biological target: Neu5Gc(a2-6)GalNAc
# Summary of the method: as §1
# [23] = biological target: Neu5Gc(a2-8)Neu5Ac(a2-3)Gal(b1-4)GlcNAc
# Summary of the method: as §1
# [24] = biological target: Neu5Gc(a2-8)Neu5Gc(a2-3)Gal(b1-4)GlcNAc
# Summary of the method: as §1
# [25] = biological target: Neu5Gc(a2-8)Neu5Gc(a2-3)Gal(b1-4)GlcNAc(b1-3)Gal(b1-4)GlcNAc
# Summary of the method: as §1
# [26] = biological target: Neu5Gc(a2-8)Neu5Gc(a2-6)Gal(b1-4)GlcNAc
# Summary of the method: as §1
# [27] = biological target: Neu5Gc(b2-6)Gal(b1-4)GlcNAc
# Summary of the method: as §1
binder,measurement,setting,value
B1,glycan array binding signal (z-score),Neu5Ac(a2-8)Neu5Ac,0.236
same,glycan array binding signal (z-score),[1],0.149
same,glycan array binding signal (z-score),[2],-0.353
same,glycan array binding signal (z-score),[3],0.307
same,glycan array binding signal (z-score),[4],-0.361
same,glycan array binding signal (z-score),[5],0.235
same,glycan array binding signal (z-score),[6],-0.149
same,glycan array binding signal (z-score),[7],-0.312
same,glycan array binding signal (z-score),[8],-0.342
same,glycan array binding signal (z-score),[9],-0.357
same,glycan array binding signal (z-score),[10],0.592
same,glycan array binding signal (z-score),[11],0.125
same,glycan array binding signal (z-score),[12],-0.877
same,glycan array binding signal (z-score),[13],-0.557
same,glycan array binding signal (z-score),Neu5Ac(b2-6)GalNAc,-0.459
same,glycan array binding signal (z-score),[14],0.24
same,glycan array binding signal (z-score),[15],-0.925
same,glycan array binding signal (z-score),[16],-0.805
same,glycan array binding signal (z-score),[17],0.321
same,glycan array binding signal (z-score),[18],-0.27
same,glycan array binding signal (z-score),Neu5Gc(a2-3)Gal(b1-4)Glc,0.805
same,glycan array binding signal (z-score),[19],0.051
same,glycan array binding signal (z-score),[20],0.155
same,glycan array binding signal (z-score),[21],-0.668
same,glycan array binding signal (z-score),[22],-0.464
same,glycan array binding signal (z-score),Neu5Gc(a2-6)GalNAc,-0.563
same,glycan array binding signal (z-score),[23],-0.372
same,glycan array binding signal (z-score),[24],0.596
same,glycan array binding signal (z-score),[25],-0.671
same,glycan array binding signal (z-score),[26],-0.299
same,glycan array binding signal (z-score),[27],-0.624

# For reference, some entries already given:
binder,measurement,setting,value
B1,glycan array binding signal (z-score),[15],-0.925
same,glycan array binding signal (z-score),[16],-0.805
